PubChem BioAssay AID1259405 – NCATS – 2018

Screen: 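Knock-downs that lift recombinant protein yield in hamster ovary cells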 (primary screen)
Cell system: Chinese hamster CHO-K1 ovary cells with stable secreted eGFP expression
Knock-down reagent: single siRNA against mouse genes, 0.8 pmol siRNA per well (2 µl of 400 nM stock)
Time to read-out: 3 days
Measurement: 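Percent of the per-plate non-targeting control median for intracellular GFP per well by laser scanning cytometry and for cell viability by ATP luminescence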
Reading the numbers: GFP, % of control: higher = more GFP per well, higher productivity; viability (ATP), % of control: higher = more viable cells (more ATP)
Active means: 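Called active when intracellular GFP, relative to negative control, is at or above 120%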
Shown is a random part of about 50,000 reagents. About 4,000 of all reagents (8%) were called active. 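Mouse siRNA library applied to hamster cells; one well for each siRNA.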 The numbers tell different reagents against one gene apart.

Gene	siRNA no.	GFP, % of control	viability (ATP), % of control	Call
Sfxn2	1	99.8	86.4	inactive
Sfxn2	2	60.2	77.7	inactive
Sfxn2	3	147	68.3	active
Pcbd2	1	105	108	inactive
Pcbd2	2	65.3	72.6	inactive
Khdrbs2	1	52.8	56	inactive
Khdrbs2	2	95.7	105	inactive
Khdrbs2	3	35.3	31.5	inactive
Lmbr1	1	113	94.4	inactive
Lmbr1	2	84.2	60.1	inactive
Lmbr1	3	65	79.8	inactive
Camk1g	1	86	87.1	inactive
Cidec	1	105	169	inactive
Cidec	2	40.7	36.5	inactive
Esco2	1	36.3	49.2	inactive
Esco2	2	63.7	71.6	inactive
Esco2	3	56.8	41	inactive
Fank1	1	72.7	90.3	inactive
Fank1	2	50.9	26.2	inactive
Fank1	3	103	83.4	inactive
Teddm2	1	64.3	83	inactive
Teddm2	2	62.1	73.2	inactive
Teddm2	3	69	74.4	inactive
Prkaa1	1	146	116	active
Prkaa1	2	45	35.6	inactive
Prkaa1	3	75.3	77.5	inactive
Cdk4	1	89.9	90.5	inactive
Mybpc2	1	44	52.2	inactive
Mybpc2	2	74.2	63.4	inactive
Eif3g	1	88.3	91.9	inactive
Eif3g	2	90.2	75.3	inactive
Eif3g	3	29.8	54.9	inactive
Asb16	1	86.7	65.4	inactive
Asb16	2	99.1	101	inactive
Asb16	3	324	130	active
